In PMC8571338 one finds binding data, which are given here for 2 substances.

Amino acid sequences for entries named in this document (tags omitted).
UniProt P61289: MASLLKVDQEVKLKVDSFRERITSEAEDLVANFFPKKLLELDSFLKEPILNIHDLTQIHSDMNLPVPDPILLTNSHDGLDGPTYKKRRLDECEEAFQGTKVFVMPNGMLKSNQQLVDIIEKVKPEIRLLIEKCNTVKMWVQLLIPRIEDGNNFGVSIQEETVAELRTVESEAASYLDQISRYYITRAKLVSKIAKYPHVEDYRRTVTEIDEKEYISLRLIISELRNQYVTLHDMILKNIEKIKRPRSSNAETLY
UniProt O00327: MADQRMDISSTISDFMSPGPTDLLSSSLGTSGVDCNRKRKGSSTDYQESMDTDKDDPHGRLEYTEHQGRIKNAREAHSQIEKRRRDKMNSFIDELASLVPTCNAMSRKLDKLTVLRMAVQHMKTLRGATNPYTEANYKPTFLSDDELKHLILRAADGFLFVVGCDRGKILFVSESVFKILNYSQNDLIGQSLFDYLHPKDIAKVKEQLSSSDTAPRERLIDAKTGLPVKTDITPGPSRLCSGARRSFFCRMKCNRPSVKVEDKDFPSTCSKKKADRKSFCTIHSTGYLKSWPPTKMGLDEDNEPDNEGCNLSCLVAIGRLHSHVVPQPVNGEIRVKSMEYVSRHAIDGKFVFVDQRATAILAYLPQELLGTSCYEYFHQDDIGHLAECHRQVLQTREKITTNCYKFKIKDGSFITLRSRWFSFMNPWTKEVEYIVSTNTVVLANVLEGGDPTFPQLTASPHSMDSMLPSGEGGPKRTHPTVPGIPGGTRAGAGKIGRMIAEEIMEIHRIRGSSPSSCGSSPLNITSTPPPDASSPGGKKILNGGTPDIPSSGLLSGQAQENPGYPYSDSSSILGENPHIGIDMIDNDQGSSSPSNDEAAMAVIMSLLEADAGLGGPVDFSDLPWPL

In one experiment the target is Flag-REGγ (UniProt P61289). Put plainly: co-IP; Flag-REGγ and HA-BMAL1 transiently co-transfected into 293T cells (2 μg each, 48 h); IP lysis buffer (50 mM Tris-HCl pH 7.5, 1 M EDTA as printed, 150 mM NaCl, 10% glycerol, 1% Nonidet P-40); lysates incubated with HA or Flag beads at 4 °C overnight; western blot. (A western blot detects proteins with antibodies after separation by electrophoresis.)

The target of the next experiment is HA-BMAL1 (human) (UniProt O00327). Described as above.

Results are given in words; binding and its absence hold for the method and conditions named. In cells and extracts the contact can be indirect. Some binding calls cover weakened binding; strength is not graded here.

Turning to HA-BMAL1 (from UniProt O00327 1-626), in the experiment with Flag-REGγ, the binding result is given as “binds”. Regarding Flag-REGγ (from UniProt P61289 1-254), the binding result with HA-BMAL1 (human) was “binds”.
